Source: patent publication US12174172B2, “Method for evaluating the efficacy of a composition in reducing the effects of cancer therapeutics on skin” (Johnson & Johnson Consumer Inc., priority 2019, dated 2024)
“And” between values parts separate entries of the source, which are not always exact repeats. Identical values can stand only once. “Also recorded” adds a separate entry of the source. For some assays here: At least one read-out could not be matched to a standard name with certainty. At least one compound was matched to its structure with a doubt left.

Experiments:
[1] = tested on: involucrin (IVL); experiment: 3D micro-epidermis model (EpiScreen): involucrin immunostaining; assay type: cell-based, human
Protocol: (§1) To assess the effects of such therapy molecules on the epidermis, keratinocytes were grown in the presence of kinase inhibitors during 3 days with high calcium concentration to induce keratinocyte differentiation and generate a 3D-stratified differentiated epidermis. Drug impact on the epidermis development was assessed via different keratinocyte markers including: • Ki-67, an universally expressed protein among proliferating cells and absent in the quiescent cells; • Filaggrin, a filament-associated protein that binds to keratin fibers and is a marker of terminal differentiation; • Desmoglein-1, a component of desmosomes and differentiation marker expressed in all epidermal layer above the basal layer; and • Involucrin, an early differentiation marker expressed in the spinous and granular layers and a protein precursor of the epidermal cornified envelope.
(§2) Human epidermal keratinocytes cells (HPEKs) from a juvenile donor (CellnTec, Switzerland) are cultured in flasks in proliferation medium. Keratinocytes are seeded at passage 6 into EpiScreen™ (Abzena, Cambridge, UK) plates containing collagen 1 coated disc micropatterns (CYTOO, Grenoble, France). Four hours later, unattached cells are washed off and a high calcium medium is added to induce keratinocytes differentiation. The day after, keratinocytes are treated with screening compounds, and Trichostatin A is added at 0.3 μM as an internal positive control. After three days of treatment, micro-epidermises are fixed with a formalin solution 10% for 30 minutes, then permeabilized with 0.1% Triton. Several immunostainings are performed: actin (Acti-Stain 555, PHDH1, Cytoskeleton), nuclei (Hoechst, H3570, Invitrogen), and one biomarker of interest per well either anti-involucrin (HPA055211, Sigma), anti-filaggrin (HPA030189, Sigma) or anti-desmoglein-1 (HPA022128, Sigma). Antibodies are added overnight at 4° C. before staining with secondary antibody, anti-rabbit 488 (711-545-152, Jackson) for 2 hours at room temperature.
(§3) Images of each well are acquired with the Operetta HCS platform (Perkin Elmer, Waltham, MA, USA) using a ×10 objective in confocal mode in eight z-planes from 2 μm to 44 μm in steps of 6 μm in each of the 3 channels: actin, nuclei, and one biomarker of interest. The first step of the image analysis consists in detecting micro-epidermis structures on the first z-plane by segmenting the actin staining. Micro-epidermis structures are validated based on several area and roundness min and max criteria. Then, the area of each biomarker staining is measured inside the valid micro-epidermis masks through each z-plane. For all homogeneous biomarker staining, their intensity through the different planes is measured.
(§4) The actin network of each micro-epidermis is analyzed in each z-plane in order to determine the average 3D structure edges. The biomarker intensity is measured in each z-plane for each structure, and then averaged with the other results generated in the same well. Based on the data generated in the two previous steps, an average 3D reconstruction image is generated. It consists of a meshwork that delimits the structure edges, and a color scaled volume that corresponds to the biomarkers distribution and expression.
The effect of 8 oncology molecules, selected from first generation EGFRi and pan-kinase inhibitors which mostly target VEGFR and second and third generation therapies targeting main mutations relating to first generation treatment resistance, were assessed in vitro using a 3D micro-epidermis model. […] The drug impact was assessed by analysis of tissue size and keratinocyte proliferation using Ki-67 staining and keratinocyte differentiation using filaggrin, desmoglein-1 and involucrin staining.
Size of the epidermis and the expression of the protein junction desmoglein-1 (DSG1), involucrin (IVL) and filaggrin (FLG) was assessed by immunostaining and compared to untreated control. […]

[2] = tested on: desmoglein-1 (DSG1); experiment: 3D micro-epidermis model (EpiScreen): desmoglein-1 immunostaining; assay type: cell-based, human; conditions: for DSG1 expression: Table 3, 30 nM (EGFRi) or 100 nM (VEGFRi), vs untreated control, superscript = significance footnote
Protocol: as §1, §2, §3, §4
The effect of 8 oncology molecules, selected from first generation EGFRi and pan-kinase inhibitors which mostly target VEGFR and second and third generation therapies targeting main mutations relating to first generation treatment resistance, were assessed in vitro using a 3D micro-epidermis model. The drug incubation concentrations (3, 10, 30, 100 nM) were selected to reflect the clinically relevant (unbound) drug exposures (Table 2). The drug impact was assessed by analysis of tissue size and keratinocyte proliferation using Ki-67 staining and keratinocyte differentiation using filaggrin, desmoglein-1 and involucrin staining. […]

[3] = tested on: filaggrin (FLG); experiment: 3D micro-epidermis model (EpiScreen): filaggrin immunostaining; assay type: cell-based, human;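 also: human primary epidermal keratinocytes differentiated in high calcium into 3D micro-epidermises, compound-treated for three days, imaged by confocal high-content microscopy, filaggrin staining intensity quantified within actin-segmented structures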
[4] = tested on: Human epidermal keratinocytes cells (HPEKs), 3D micro-epidermis; experiment: 3D micro-epidermis model (EpiScreen): epidermis size, toxicity, dose response, classification; assay type: cell-based; conditions: for Dose/response: supplementary table, per run (1st or 2nd Run);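 as to all read-outs here: keratinocytes on micropatterned discs in high-calcium medium, drug exposure for three days, then fixation and confocal high-content imaging of actin, nuclei and a marker, vehicle DMSO-matched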
[5] = tested on: desmoglein-1 (DSG1); experiment: 3D micro-epidermis model (EpiScreen): desmoglein-1 immunostaining; assay type: cell-based, human; conditions: supplementary data, Tox = toxic
[6] = supplementary data, two runs, Tox = toxic
[7] = Table 3, 30 nM (EGFRi) or 100 nM (VEGFRi), vs untreated control, superscript = significance footnote
[8] = concentration (afatinib 3, 10, 30 nM; pan-kinase inhibitors 100 nM)

Row | Compound | IVL expression [1, 7] | DSG1 expression [2] | FLG expression [3, 7] | Dose/response ([4]; markers in brackets) | further results
1 | CNC(=O)c1cc(Oc2ccc(NC(=O)Nc3ccc(Cl)c(C(F)(F)F)c3)cc2)ccn1 [Sorafenib] | 2%^4 | −9%^4 |  |  | IVL 100 nM [1, 6]: 0% and 2%
2 | COc1cc2ncnc(Nc3ccc(F)c(Cl)c3)c2cc1NC(=O)/C=C/CN1CCCCC1 [Dacomitinib] | 60%^5 | 54%^5 | 31%^7 |  | 
3 | CS(=O)(=O)CCNCc1ccc(-c2ccc3ncnc(Nc4ccc(OCc5cccc(F)c5)c(Cl)c4)c3c2)o1 [Lapatinib] | 30%^6 | 29%^6 | 20%^6 |  | 
4 | C=CC(=O)Nc1cc(Nc2nccc(-c3cn(C)c4ccccc34)n2)c(OC)cc1N(C)CCN(C)C [Osimertinib] | 7%^4 | 7%^4 | 2%^4 |  | 
5 | COc1cc2c(Nc3ccc(Br)cc3F)ncnc2cc1OCC1CCN(C)CC1 [Vandetanib] |  |  |  | Yes (DSG, IVL, | IVL 10 μM ([1]; 10 μM, supplementary data, two runs, Tox = toxic): Tox; DSG 10 μM [5]: Tox
6 | CN(C)C/C=C/C(=O)Nc1cc2c(Nc3ccc(F)c(Cl)c3)ncnc2cc1O[C@H]1CCOC1 [Afatinib] | 12%^5 | 87%^5 |  |  | 
7 | CC(=O)Nc1ccc(O)cc1 [Acetaminophen] | 4%^4 | 18%^4 | −5%^4 |  | IVL 100 nM [1, 6]: 10% and 4%; IVL 1 μM [1, 6]: 7% and −2%; FLG 100 nM ([3]; 100 nM, supplementary data, two runs, Tox = toxic): 2% and −5%; FLG 1 μM ([3]; 1 μM, supplementary data, two runs, Tox = toxic): 0% and −4.0%
8 | CCCS(=O)(=O)Nc1ccc(F)c(C(=O)c2c[nH]c3ncc(-c4ccc(Cl)cc4)cc23)c1F [Vemurafenib] |  |  |  | Yes (DSG, IVL, | 
9 | CC#CC(=O)N1CCC[C@H]1c1nc(-c2ccc(C(=O)Nc3ccccn3)cc2)c2c(N)nccn12 [Acalabrutinib] |  |  |  | Yes (DSG, IVL, | 
10 | CCN(CC)CCNC(=O)c1c(C)[nH]c(/C=C2\C(=O)Nc3ccc(F)cc32)c1C [Sunitinib] | 0%^4 | −16%^4 | −12%^3 | Yes (FLG) and No | Epidermis size ([4]; Table 1 summary of drug effect on epidermis): Unchanced; Classification ([4]; Table 1 summary, pro-differentiation / pro-proliferation): Unchanged; Epidermis size ([4]; Table 3, 30 nM (EGFRi) or 100 nM (VEGFRi), 3 days, vs untreated control, superscript = significance footnote): Unchanged^4; Classification ([4]; Table 3, pro-proliferation or pro-differentiation): Pro-; Dose in response ([4]; Table 3, variation of protein expression at 3, 10, 30 nM (EGFRi) or 3, 10, 30, 100 nM (VEGFRi), markers in brackets): No; IVL 1 μM [1, 6]: 9% and −1%; IVL expression ([1]; Table 1 summary): Unchanged; involucrin expression [1, 8]: do not impact; FLG expression ([3]; Table 1 summary): Unchanged; filaggrin expression ([3]; concentration (afatinib 10 and 30 nM; pan-kinase inhibitors 100 nM)): significantly decrease; also recorded: significantly increased; DSG 100 nM ([2]; 100 nM, supplementary data, Tox = toxic): −10% and −16%; DSG 1 μM ([2]; 1 μM, supplementary data, Tox = toxic): −11% and −4%; DSG-1 expression ([2]; Table 1 summary): Unchanged; desmoglein-1 expression [2, 8]: do not impact
